Assay results: US9738595B2, “Carboxamide compounds” (SYNGENTA PARTICIPATIONS AG, priority 2013, dated 2017)
Some entries share one result that the patent states for a list of compounds.

System: Heterodera schachtii (Sugar Beet Cyst Nematode)
Test: Heterodera schachtii (sugar beet cyst nematode), contact activity, preventive: coated sugar beet seeds in field soil
Type: in vivo
Settings: coated sugar beet cv. Impulse seeds, 0.6 mg Al/seed; 500 J2; nematodes per g of root 10 days after inoculation

| Structure (SMILES) | reduction of nematode population compared to the untreated control |
| --- | --- |
| CC(C)(NC(=O)c1c(F)cccc1F)C(=O)c1ccc([C@H]2C[C@@H]2C(F)(F)F)cc1 (racemic) [Compound 19.003, N-[1,1-dimethyl-2-oxo-2-[4-[trans-2-(trifluoromethyl)-1-cyclopropyl]phenyl]ethyl]-2,6-difluoro-benzamide] | greater than 80% |
| CC(C)(NC(=O)c1cccnc1Cl)C(=O)c1ccc(C2CC2C(F)(F)F)cc1 (racemic) [Compound 19.008] | greater than 80% |
| CC(C)(NC(=O)c1ncccc1Cl)C(=O)c1ccc(C2CC2C(F)(F)F)cc1 (racemic) [Compound 19.010] | greater than 80% |
| CC(C)(NC(=O)c1nccnc1Cl)C(=O)c1ccc(C2CC2C(F)(F)F)cc1 (racemic) [Compound 19.017] | greater than 80% |
| CC(C)(NC(=O)c1nccnc1Cl)C(=O)c1ccc(C2CC2)cc1 [Compound 19.015] | greater than 80% |
